Assay results reported in paper PMC10394380.
These are yes or no findings as the source states them, for the method shown. Some entries that bind do so weakly or less than the wild type. Where a sequence is shown, tags or fusion partners need not be part of it.

How the values were obtained:
[1] = target: GFP-CAV1 (Caveolin-1, alpha-CAV1) (mouse) (UniProt P49817); test: sucrose gradient sedimentation; transfected COS-1 cells (3 h expression, untreated) solubilized with 0.5% Triton X-100 (TX), loaded on top of a 10-40% sucrose step gradient, ultracentrifuged at 55,000 rpm, 4°C; seven fractions immunoblotted with anti-GFP
[2] = target: GFP-CAV1 (Caveolin-1, alpha-CAV1) (mouse) (UniProt P49817); test: sucrose gradient sedimentation; as the TX gradient (0.5% Triton X-100), but protein expressed for 3 h in cells treated with the proteasome inhibitor MG132 (50 uM)
[3] = target: GFP-CAV1 (Caveolin-1, alpha-CAV1) (mouse) (UniProt P49817); test: sucrose gradient sedimentation; transfected COS-1 cells (3 h expression, untreated) solubilized with 0.2% Triton X-100 + 0.4% SDS (TX+SDS), 10-40% sucrose step gradient, 55,000 rpm, 4°C; fractions immunoblotted with anti-GFP
[4] = target: GFP-CAV1-P158 (CAV1 P158PfsX22 frameshift mutant) (mouse) (UniProt P49817); test: sucrose gradient sedimentation; transfected COS-1 cells (3 h expression, untreated) solubilized with 0.5% Triton X-100 (TX), loaded on top of a 10-40% sucrose step gradient, ultracentrifuged at 55,000 rpm, 4°C; seven fractions immunoblotted with anti-GFP
[5] = target: GFP-CAV1-P158 (CAV1 P158PfsX22 frameshift mutant) (mouse) (UniProt P49817); test: sucrose gradient sedimentation; as the TX gradient (0.5% Triton X-100), but protein expressed for 3 h in cells treated with the proteasome inhibitor MG132 (50 uM)
GFP-CAV1-P132L (mouse) = GFP-CAV1-P132L (mouse) (UniProt P49817); test: as above

B1: GFP-CAV1 (Caveolin-1, alpha-CAV1) (protein, UniProt P49817 1-178)
chain: MSGGKYVDSEGHLYTVPIREQGNIYKPNNKAMADEVTEKQVYDAHTKEIDLVNRDPKHLNDDVVKIDFEDVIAEPEGTHSFDGIWKASFTTFTVTKYWFYRLLSTIFGIPMALIWGIYFAILSFLHIWAVVPCIKSFLIEIQCISRVYSIYVHTFCDPLFEAIGKIFSNIRISTQKEI
- binding [1]: binds
- binding [2]: binds
- binding [3]: binds

B2: GFP-CAV1-P158 (CAV1 P158PfsX22 frameshift mutant) (protein, UniProt P49817 1-157)
chain: MSGGKYVDSEGHLYTVPIREQGNIYKPNNKAMADEVTEKQVYDAHTKEIDLVNRDPKHLNDDVVKIDFEDVIAEPEGTHSFDGIWKASFTTFTVTKYWFYRLLSTIFGIPMALIWGIYFAILSFLHIWAVVPCIKSFLIEIQCISRVYSIYVHTFCDPSLKLLGKYSAMSASTCRKKYK
- binding [4]: binds
- binding [5]: binds

B3: GFP-CAV1-P132L (protein, UniProt P49817 1-178)
chain: MSGGKYVDSEGHLYTVPIREQGNIYKPNNKAMADEVTEKQVYDAHTKEIDLVNRDPKHLNDDVVKIDFEDVIAEPEGTHSFDGIWKASFTTFTVTKYWFYRLLSTIFGIPMALIWGIYFAILSFLHIWAVVLCIKSFLIEIQCISRVYSIYVHTFCDPLFEAIGKIFSNIRISTQKEI
- binding (GFP-CAV1-P132L (mouse)): binds
